The list shows a part of the results.
Compound: FC(F)(F)c1ccc(/C=C/c2nc(COc3ccc(CCCCn4ccnn4)cc3)co2)cc1 [mubritinib]
Experiment: log2 fold change, soluble protein after heating vs DMSO (PISA); higher = thermal stabilisation; K562 cells, 10 uM, 30 min; active = over 0.2 and 3.5 SD of the protein, either way, in both replicates (recomputed)
In short: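 For each measurement, 10 μM compound was applied for 30 min to K562 cells at 2×10^6 cells/mL. Aliquots were heated for 3 min across 48°C-58°C, pooled, and extracted in PBS with 0.5% NP-40 at 4°C; the supernatant after 21,000xg for 90 min was soluble protein. This was quantified by TMTpro 16plex LC-MS/MS with channel sums equalised, and thermal stability was reported relative to control samples from duplicates, on a log2 fold-change scale.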

By UniProt entry, the sequences of proteins in these tests, tags left out. Where a name states a change or a piece, a line headed by the entry shows the natural chain unless it says otherwise.
UniProt O95630, whole entry, looked up: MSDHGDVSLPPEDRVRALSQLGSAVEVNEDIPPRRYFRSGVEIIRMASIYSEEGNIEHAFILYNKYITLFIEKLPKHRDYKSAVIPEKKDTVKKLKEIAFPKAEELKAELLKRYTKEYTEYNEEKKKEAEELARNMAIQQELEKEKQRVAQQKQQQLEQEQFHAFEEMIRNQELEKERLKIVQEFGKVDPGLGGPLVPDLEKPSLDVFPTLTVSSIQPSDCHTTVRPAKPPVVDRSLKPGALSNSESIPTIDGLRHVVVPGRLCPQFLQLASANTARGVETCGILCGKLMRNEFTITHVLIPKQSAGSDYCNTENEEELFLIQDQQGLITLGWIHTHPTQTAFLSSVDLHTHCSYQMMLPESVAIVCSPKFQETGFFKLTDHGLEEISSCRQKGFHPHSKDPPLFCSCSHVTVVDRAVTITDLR
UniProt P16150: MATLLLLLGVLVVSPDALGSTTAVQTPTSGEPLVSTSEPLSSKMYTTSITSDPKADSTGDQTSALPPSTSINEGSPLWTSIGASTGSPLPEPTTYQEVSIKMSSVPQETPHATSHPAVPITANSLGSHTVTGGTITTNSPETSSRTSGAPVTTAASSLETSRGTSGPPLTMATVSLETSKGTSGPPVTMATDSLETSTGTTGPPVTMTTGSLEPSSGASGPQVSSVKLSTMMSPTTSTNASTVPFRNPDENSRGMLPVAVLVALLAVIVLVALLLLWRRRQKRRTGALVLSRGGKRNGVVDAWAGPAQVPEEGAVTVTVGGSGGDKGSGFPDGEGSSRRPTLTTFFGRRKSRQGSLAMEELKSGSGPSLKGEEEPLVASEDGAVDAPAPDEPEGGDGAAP
UniProt Q96SB4, whole entry, looked up: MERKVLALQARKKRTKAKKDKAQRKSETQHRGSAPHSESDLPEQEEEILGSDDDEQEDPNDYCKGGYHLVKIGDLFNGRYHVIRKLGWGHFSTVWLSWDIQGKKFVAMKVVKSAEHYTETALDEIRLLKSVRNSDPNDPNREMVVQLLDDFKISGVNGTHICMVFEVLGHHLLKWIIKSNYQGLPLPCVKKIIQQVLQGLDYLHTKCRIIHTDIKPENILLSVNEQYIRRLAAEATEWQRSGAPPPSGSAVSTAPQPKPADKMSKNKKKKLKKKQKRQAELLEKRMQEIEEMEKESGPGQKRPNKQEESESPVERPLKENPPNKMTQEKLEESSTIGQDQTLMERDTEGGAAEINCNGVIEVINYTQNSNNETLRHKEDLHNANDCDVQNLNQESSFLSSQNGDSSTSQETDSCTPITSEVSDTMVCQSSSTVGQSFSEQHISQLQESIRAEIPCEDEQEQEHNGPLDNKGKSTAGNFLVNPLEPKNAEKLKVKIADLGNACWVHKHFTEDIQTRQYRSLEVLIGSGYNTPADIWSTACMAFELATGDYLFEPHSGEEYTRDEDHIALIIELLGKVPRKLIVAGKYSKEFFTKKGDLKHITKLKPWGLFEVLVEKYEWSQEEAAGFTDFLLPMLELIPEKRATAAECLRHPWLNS
UniProt Q9UQ90: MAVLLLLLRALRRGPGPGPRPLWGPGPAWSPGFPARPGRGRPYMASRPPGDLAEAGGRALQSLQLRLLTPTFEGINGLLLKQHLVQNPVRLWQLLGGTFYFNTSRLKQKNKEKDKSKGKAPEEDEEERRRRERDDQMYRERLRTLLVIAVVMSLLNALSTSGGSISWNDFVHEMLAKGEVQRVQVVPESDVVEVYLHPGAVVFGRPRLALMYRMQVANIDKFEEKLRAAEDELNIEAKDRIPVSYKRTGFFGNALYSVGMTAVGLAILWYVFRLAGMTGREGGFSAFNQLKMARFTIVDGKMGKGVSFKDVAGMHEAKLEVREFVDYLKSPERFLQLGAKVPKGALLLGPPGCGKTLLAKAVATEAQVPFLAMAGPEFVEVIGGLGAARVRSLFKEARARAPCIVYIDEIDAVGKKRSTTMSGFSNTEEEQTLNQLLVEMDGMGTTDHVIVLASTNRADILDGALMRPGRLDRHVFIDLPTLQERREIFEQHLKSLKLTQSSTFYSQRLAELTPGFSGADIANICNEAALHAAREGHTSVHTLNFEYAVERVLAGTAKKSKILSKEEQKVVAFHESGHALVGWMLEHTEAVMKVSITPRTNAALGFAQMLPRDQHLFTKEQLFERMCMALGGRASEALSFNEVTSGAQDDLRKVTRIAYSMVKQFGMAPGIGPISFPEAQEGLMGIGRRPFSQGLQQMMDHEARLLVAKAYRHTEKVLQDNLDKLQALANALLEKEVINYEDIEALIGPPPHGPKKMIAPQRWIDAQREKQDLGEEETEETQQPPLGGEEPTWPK
UniProt P09132: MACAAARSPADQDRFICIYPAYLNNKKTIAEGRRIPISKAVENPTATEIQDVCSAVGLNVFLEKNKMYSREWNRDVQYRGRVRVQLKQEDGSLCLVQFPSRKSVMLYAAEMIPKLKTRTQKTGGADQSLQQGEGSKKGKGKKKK
UniProt Q8NBT2: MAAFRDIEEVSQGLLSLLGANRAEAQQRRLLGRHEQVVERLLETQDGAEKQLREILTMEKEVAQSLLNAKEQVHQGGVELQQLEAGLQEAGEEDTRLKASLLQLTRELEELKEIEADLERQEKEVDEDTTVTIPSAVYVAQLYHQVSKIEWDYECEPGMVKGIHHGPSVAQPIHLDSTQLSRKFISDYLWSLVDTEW
UniProt P19623: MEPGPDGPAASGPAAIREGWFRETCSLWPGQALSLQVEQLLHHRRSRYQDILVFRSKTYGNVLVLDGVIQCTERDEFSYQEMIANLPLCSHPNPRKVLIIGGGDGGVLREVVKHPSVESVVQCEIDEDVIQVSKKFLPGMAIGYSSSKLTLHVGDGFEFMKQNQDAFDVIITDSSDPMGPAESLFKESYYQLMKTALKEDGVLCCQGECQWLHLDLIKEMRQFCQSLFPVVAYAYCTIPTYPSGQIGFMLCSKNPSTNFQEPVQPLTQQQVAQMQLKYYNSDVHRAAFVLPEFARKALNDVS
UniProt P31948, whole entry, looked up: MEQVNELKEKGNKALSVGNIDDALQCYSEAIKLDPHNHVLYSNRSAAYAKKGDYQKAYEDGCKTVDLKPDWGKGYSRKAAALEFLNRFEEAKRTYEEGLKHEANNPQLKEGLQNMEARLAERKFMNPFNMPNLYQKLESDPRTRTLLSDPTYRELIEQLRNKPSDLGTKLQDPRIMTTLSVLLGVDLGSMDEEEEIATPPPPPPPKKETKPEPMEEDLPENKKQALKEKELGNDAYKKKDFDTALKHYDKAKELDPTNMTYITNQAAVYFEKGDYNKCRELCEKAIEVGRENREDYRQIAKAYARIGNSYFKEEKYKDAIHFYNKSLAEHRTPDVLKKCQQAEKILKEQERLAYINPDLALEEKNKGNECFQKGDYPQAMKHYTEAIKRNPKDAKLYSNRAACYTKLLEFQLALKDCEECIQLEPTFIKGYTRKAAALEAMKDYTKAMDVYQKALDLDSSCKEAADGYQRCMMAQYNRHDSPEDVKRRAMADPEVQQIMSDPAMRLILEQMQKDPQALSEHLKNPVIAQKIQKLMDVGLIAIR
UniProt Q8NB90: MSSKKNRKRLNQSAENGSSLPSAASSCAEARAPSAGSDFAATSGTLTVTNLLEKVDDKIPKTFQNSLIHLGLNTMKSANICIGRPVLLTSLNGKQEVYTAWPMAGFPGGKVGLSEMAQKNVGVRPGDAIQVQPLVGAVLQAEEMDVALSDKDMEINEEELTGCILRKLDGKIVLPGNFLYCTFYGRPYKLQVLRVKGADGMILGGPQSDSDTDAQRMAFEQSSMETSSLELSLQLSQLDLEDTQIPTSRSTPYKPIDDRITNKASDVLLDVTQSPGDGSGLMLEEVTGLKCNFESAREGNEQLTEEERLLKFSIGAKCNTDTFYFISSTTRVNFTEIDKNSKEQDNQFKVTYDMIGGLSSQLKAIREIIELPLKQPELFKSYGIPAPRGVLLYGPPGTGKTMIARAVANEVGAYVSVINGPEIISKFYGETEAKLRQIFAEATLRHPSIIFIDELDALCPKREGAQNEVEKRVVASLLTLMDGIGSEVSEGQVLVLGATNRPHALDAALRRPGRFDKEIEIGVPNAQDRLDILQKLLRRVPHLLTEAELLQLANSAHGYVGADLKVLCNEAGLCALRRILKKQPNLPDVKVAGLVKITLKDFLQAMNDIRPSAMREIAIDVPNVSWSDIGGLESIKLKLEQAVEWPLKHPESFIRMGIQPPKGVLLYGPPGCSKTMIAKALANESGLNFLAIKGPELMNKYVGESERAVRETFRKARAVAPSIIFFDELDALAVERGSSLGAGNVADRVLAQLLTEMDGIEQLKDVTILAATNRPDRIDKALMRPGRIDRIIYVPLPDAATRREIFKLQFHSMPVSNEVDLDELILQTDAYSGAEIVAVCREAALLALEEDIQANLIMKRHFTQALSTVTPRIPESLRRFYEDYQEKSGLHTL
UniProt P09486: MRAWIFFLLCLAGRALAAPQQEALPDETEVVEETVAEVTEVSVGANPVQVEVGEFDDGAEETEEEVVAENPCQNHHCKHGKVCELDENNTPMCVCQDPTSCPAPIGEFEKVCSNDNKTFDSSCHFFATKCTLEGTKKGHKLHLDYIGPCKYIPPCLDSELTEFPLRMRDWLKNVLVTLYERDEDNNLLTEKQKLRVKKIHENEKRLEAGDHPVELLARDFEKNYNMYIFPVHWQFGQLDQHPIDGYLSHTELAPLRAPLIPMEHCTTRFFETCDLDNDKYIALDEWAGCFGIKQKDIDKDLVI
UniProt Q92783: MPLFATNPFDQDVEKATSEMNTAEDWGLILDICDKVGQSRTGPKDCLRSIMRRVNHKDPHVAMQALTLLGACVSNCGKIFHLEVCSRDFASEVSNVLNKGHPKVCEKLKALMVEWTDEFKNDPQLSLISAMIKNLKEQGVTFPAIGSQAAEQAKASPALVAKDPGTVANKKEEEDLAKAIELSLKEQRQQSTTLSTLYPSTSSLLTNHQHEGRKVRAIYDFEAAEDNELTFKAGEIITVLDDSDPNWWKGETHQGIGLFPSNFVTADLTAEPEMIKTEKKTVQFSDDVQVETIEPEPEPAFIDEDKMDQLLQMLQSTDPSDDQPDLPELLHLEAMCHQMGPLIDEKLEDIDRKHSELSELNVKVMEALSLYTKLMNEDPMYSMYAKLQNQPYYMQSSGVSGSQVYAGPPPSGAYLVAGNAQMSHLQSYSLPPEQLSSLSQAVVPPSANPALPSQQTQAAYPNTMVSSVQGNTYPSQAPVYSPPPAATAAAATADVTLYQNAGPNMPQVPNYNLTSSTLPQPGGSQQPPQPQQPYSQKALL
UniProt O43805: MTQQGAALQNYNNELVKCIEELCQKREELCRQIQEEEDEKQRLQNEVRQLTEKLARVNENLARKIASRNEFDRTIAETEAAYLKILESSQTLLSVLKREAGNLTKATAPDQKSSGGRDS
UniProt Q9NRC1: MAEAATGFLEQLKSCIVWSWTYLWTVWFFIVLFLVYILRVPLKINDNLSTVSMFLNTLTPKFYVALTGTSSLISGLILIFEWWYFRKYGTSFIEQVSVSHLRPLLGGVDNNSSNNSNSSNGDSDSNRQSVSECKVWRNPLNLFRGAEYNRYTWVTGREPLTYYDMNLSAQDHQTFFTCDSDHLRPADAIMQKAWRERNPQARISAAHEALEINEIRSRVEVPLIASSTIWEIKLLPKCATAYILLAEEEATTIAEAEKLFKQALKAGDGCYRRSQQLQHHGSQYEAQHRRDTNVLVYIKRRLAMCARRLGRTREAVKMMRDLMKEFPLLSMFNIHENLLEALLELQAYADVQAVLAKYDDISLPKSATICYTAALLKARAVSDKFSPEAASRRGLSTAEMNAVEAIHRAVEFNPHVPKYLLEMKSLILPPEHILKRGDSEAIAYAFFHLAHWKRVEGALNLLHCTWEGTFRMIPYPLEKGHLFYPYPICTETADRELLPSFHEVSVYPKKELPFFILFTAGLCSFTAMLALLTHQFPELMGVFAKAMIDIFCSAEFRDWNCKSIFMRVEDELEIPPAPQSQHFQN
UniProt Q9Y657, whole entry, looked up: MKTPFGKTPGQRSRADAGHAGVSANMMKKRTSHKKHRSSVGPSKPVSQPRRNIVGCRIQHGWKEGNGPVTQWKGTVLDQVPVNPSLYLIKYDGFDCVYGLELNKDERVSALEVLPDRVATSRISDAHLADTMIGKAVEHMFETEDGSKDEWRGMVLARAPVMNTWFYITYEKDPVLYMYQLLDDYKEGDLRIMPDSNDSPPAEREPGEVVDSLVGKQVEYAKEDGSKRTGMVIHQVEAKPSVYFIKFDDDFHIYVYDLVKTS
UniProt P50502: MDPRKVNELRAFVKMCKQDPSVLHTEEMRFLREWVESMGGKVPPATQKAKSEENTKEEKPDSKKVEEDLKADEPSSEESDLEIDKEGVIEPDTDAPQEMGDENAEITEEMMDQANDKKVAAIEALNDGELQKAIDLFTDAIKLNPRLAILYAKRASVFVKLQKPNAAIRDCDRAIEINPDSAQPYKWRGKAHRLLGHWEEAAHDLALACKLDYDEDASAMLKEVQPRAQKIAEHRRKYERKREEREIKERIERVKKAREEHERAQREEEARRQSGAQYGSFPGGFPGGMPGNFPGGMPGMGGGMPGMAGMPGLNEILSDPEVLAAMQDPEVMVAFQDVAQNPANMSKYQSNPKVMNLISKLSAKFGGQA

Q: Which log2 fold change does the source give for SSBP1 (UniProt Q04837) here?
A: The log2 fold change was inactive: -0.014.

Q: Which log2 fold change does the source give for STAMBP (UniProt O95630) here?
A: Its log2 fold change is inactive: 0.011.

Q: SPC25 (UniProt Q9HBM1) was tested. Which log2 fold change did it give?
A: Its log2 fold change is inactive: -0.013.

Q: Which log2 fold change does the source give for SRRM1 (UniProt Q8IYB3) here?
A: The log2 fold change was inactive: -0.024.

Q: For SSR1 (UniProt P43307), which log2 fold change is on record?
A: Its log2 fold change is inactive: 0.024.

Q: Which log2 fold change does the source give for SRRT (UniProt Q9BXP5) here?
A: The log2 fold change was inactive: 0.104.

Q: Which log2 fold change does the source give for STK11 (UniProt Q15831) here?
A: The log2 fold change was inactive: 0.056.

Q: SPTA1 (UniProt P02549) was tested. Which log2 fold change did it give?
A: The log2 fold change was inactive: -0.138.

Q: With SPTAN1 isoform 2 (UniProt Q13813) as the target, how does the log2 fold change read?
A: Its log2 fold change is inactive: -0.016.

Q: Which log2 fold change does the source give for SRP9 (UniProt P49458) here?
A: The log2 fold change was inactive: -0.132.

Q: With SPN (UniProt P16150) as the target, how does the log2 fold change read?
A: Its log2 fold change is inactive: 0.071.

Q: Which log2 fold change does the source give for SPTLC2 (UniProt O15270) here?
A: The log2 fold change was inactive: 0.068.

Q: How did the log2 fold change turn out when SRGN (UniProt P10124) was run?
A: The log2 fold change was inactive: -0.004.

Q: With SRPK1 (UniProt Q96SB4) as the target, how does the log2 fold change read?
A: The log2 fold change was inactive: -0.121.

Q: For SPG7 (UniProt Q9UQ90), which log2 fold change is on record?
A: The log2 fold change was inactive: -0.022.

Q: With SRP19 (UniProt P09132) as the target, how does the log2 fold change read?
A: The log2 fold change was inactive: 0.017.

Q: How did the log2 fold change turn out when SPRY4 (UniProt Q9C004) was run?
A: The log2 fold change was inactive: 0.014.

Q: With SPC24 (UniProt Q8NBT2) as the target, how does the log2 fold change read?
A: Its log2 fold change is inactive: 0.013.

Q: How did the log2 fold change turn out when STAU1 (UniProt O95793) was run?
A: Its log2 fold change is inactive: -0.232.

Q: For SRP14 (UniProt P37108), which log2 fold change is on record?
A: Its log2 fold change is inactive: -0.178.

Q: SRSF5 (UniProt Q13243) was tested. Which log2 fold change did it give?
A: Its log2 fold change is inactive: -0.15.

Q: With SRM (UniProt P19623) as the target, how does the log2 fold change read?
A: The log2 fold change was inactive: 0.076.

Q: With STIP1 isoform 2 (UniProt P31948) as the target, how does the log2 fold change read?
A: Its log2 fold change is inactive: 0.025.

Q: SPATA5 (UniProt Q8NB90) was tested. Which log2 fold change did it give?
A: The log2 fold change was inactive: 0.007.

Q: STAG2 (UniProt Q8N3U4) was tested. Which log2 fold change did it give?
A: Its log2 fold change is inactive: 0.085.

Q: For SQLE (UniProt Q14534), which log2 fold change is on record?
A: The log2 fold change was inactive: 0.049.

Q: How did the log2 fold change turn out when SPARC (UniProt P09486) was run?
A: Its log2 fold change is inactive: 0.024.

Q: For SPTB isoform 2 (UniProt P11277), which log2 fold change is on record?
A: The log2 fold change was inactive: -0.129.

Q: STAM (UniProt Q92783) was tested. Which log2 fold change did it give?
A: Its log2 fold change is inactive: -0.011.

Q: How did the log2 fold change turn out when SSNA1 (UniProt O43805) was run?
A: Its log2 fold change is inactive: 0.065.

Q: For SPNS1 (UniProt Q9H2V7), which log2 fold change is on record?
A: The log2 fold change was inactive: 0.006.

Q: Which log2 fold change does the source give for SPCS3 (UniProt P61009) here?
A: The log2 fold change was inactive: 0.022.

Q: How did the log2 fold change turn out when SPRYD7 (UniProt Q5W111) was run?
A: Its log2 fold change is inactive: 0.098.

Q: With ST7 (UniProt Q9NRC1) as the target, how does the log2 fold change read?
A: Its log2 fold change is inactive: 0.036.

Q: With SPTBN2 (UniProt O15020) as the target, how does the log2 fold change read?
A: The log2 fold change was inactive: -0.043.

Q: SPIN1 (UniProt Q9Y657) was tested. Which log2 fold change did it give?
A: The log2 fold change was inactive: 0.001.

Q: How did the log2 fold change turn out when SPCS1, A0A5F9YFS9 was run?
A: The log2 fold change was inactive: -0.004.

Q: Which log2 fold change does the source give for ST13 (UniProt P50502) here?
A: Its log2 fold change is inactive: 0.047.

Reference: the supplement of paper PMC10849652
